# Reference: PubChem BioAssay AID504834 (National Center for Advancing Translational Sciences (NCATS), 2011)
# Hit rate of the full screen: of about 320,000 compounds, about 22,000 (6.9%) were called active. Inconclusive results, whose numbers are uncertain, are shown with a selection of clear calls. Calls follow the shape of the dose curve; as a rule, active = well fitted inhibition curve with a large enough effect; inconclusive = small, poorly fitted or top-dose-only effect, or another doubt; inactive = no such curve, though single readings can be large or run the other way. Potencies of inconclusive entries are doubtful fits and often do not repeat.
# Experiment: Primary qHTS for delayed death inhibitors of the malarial parasite plastid, 96 hour incubation
# Conditions: P. falciparum luciferase reporter growth; series mostly up to 28.7 µM; activity change, negative = inhibition: at the top concentration
# Outline: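 P. falciparum expressing integrated firefly luciferase, in erythrocytes at 2% hematocrit, 0.05% parasitemia, incubated with compounds 96 h at 37 C, 5% CO2. Growth inhibition read as loss of luminescence; two-generation exposure targets delayed-death apicoplast inhibitors.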
# % is scaled to controls: 0 for no effect and ±100 for the full control effect; potency is read from the fitted curve at half-maximal effect.
SMILES,"activity change, negative = inhibition",Potency
Cc1ccc(C(=O)CN2C(=O)NC3(CCc4ccccc43)C2=O)c(C)c1 (stereo unspecified),inactive: 3.08%,
CCCn1c(SCC(=O)N(C)CC(=O)Nc2ccc(C)cc2)n[nH]c1=O,,"inconclusive: 2.33 µM [inhibitor, full curve, poor fit]"
CN1C(=O)/C(=C/c2ccc(C(F)(F)F)cc2)Sc2ccc(C(=O)N3CCN(c4ccccn4)CC3)cc21,inactive: 40.5%,
O=C(NCc1ccc(N2CCCC2=O)cc1)c1cnccn1,,"inconclusive: 18.5 µM [inhibitor, single point]"
COc1cc(C(=O)N/N=C/c2cn(Cc3cccc(F)c3)c3ccccc23)ccc1O,,active: 1.65 µM
c1ccc(SCCOCCN2CCOCC2)cc1,inactive: -14.7%,
O=C(c1ccc(F)cc1)C1CCN(C(=O)c2ccccc2)CC1,,"inconclusive: 18.5 µM [inhibitor, single point]"
Cc1cc(C(=O)CSc2n[nH]c(N)n2)c(C)n1C1CC1,,"inconclusive: 1.17 µM [inhibitor, full curve]"
NC(=O)c1ccsc1NC(=O)CS(=O)(=O)c1ccccc1,inactive: 50.7%,
O=S(=O)(Cc1cc(Cl)nc(-c2ccncc2)n1)c1ccccc1,,"inconclusive: 0.0928 µM [inhibitor, full curve, poor fit]"
CC(C)CC(=O)Nc1nnc(SCC(=O)NCC2CCCO2)s1 (stereo unspecified),,"inconclusive: 18.5 µM [inhibitor, single point]"
CC(Sc1nnc(C2CC2)n1C1CC1)C(=O)NCc1cccs1 (stereo unspecified),,"inconclusive: 20.8 µM [inhibitor, partial curve, poor fit]"
CC(COc1ccc(C(C)C)cc1)NC(=O)c1ccc(Br)o1 (stereo unspecified),,"inconclusive: 11.7 µM [inhibitor, partial curve, poor fit]"
CCC(C)[C@H](NC(=O)N1CCCC1)C(=O)OC (stereo partly specified),,"inconclusive: 2.94 µM [inhibitor, partial curve, poor fit]"
CN(C)CCN(C(=O)c1ccc2ccccc2c1)c1nc2ccc(Br)cc2s1,,"inconclusive: 18.5 µM [inhibitor, single point]"
O=C(Nc1nccs1)c1cc(-c2ccncc2)nc2ccccc12,,"inconclusive: 5.22 µM [inhibitor, partial curve, poor fit]"
COc1cccc(-n2c(Cn3nc(C(F)(F)F)cc3C)n[nH]c2=S)c1,inactive: -1.62%,
O=[N+]([O-])C1C(c2ccccc2)=NOC1c1ccccc1O (stereo unspecified),,"inconclusive: 4.15 µM [inhibitor, single point]"
CSc1oc(-c2ccco2)nc1S(=O)(=O)c1ccc(F)cc1,,"inconclusive: 16.5 µM [inhibitor, single point]"
COc1cc(NC(C)=O)ccc1NC(=O)c1cc2ccccc2o1,,active: 11.7 µM
Cc1cc2nnc(SCc3ccccc3)n2c(N)n1,inactive: 56.5%,
COc1cc([N+](=O)[O-])ccc1NC(=O)CCS(=O)(=O)c1ccc2c(c1)n(C)c(=O)c(=O)n2C,,"inconclusive: 18.5 µM [inhibitor, single point]"

# In the list so far, three contain a furan ring, fused or not.
SMILES,"activity change, negative = inhibition",Potency
CC(COc1ccc(C(C)C)cc1)NC(=O)c1ccc(Br)o1 (stereo unspecified),,"inconclusive: 11.7 µM [inhibitor, partial curve, poor fit]"
CSc1oc(-c2ccco2)nc1S(=O)(=O)c1ccc(F)cc1,,"inconclusive: 16.5 µM [inhibitor, single point]"
COc1cc(NC(C)=O)ccc1NC(=O)c1cc2ccccc2o1,,active: 11.7 µM

# Carrying on.

SMILES,"activity change, negative = inhibition",Potency
COc1ccc2c(c1)c1ccc3c(c1n2C)C(=O)C=CC3=O,,"inconclusive: 4.65 µM [inhibitor, partial curve, poor fit]"
CC(=O)Nc1ccc(NC(=O)COC(=O)c2cc(S(=O)(=O)N(C)C)ccc2N2CCCC2)cc1,inactive: 2.77%,
O=c1c(OC2OC(CO)C(O)C(O)C2O)c(-c2ccc(O)c(O)c2)oc2cc(O)cc(O)c12 (stereo unspecified),,"inconclusive: 7.38 µM [inhibitor, partial curve]"
Cc1cc(/C=C2/C(=N)N3C(c4ccccc4)=CSC3=NC2=O)c(C)n1-c1ccccc1,inactive: 0%,
CCOc1ccc(NC(=O)CN(C)C(=O)CSCc2ccc(C)cc2)cc1OCC,,"inconclusive: 7.38 µM [inhibitor, partial curve]"
CCOCCCNC(=O)c1ccccc1OC1CCN(S(C)(=O)=O)CC1,inactive: 0.251%,
Cc1ccc(Cn2nc(C)c(NC(=O)CSc3nc4c(c(C(F)(F)F)n3)CCc3ccccc3-4)c2C)cc1,,"inconclusive: 10.4 µM [inhibitor, partial curve, poor fit]"
CCOc1ccc(S(=O)(=O)NCc2ccccc2OC)cc1,,"inconclusive: 3.29 µM [inhibitor, partial curve, poor fit]"
CC1(O)C[C@]2(C)N(O)C3CCCC[C@@H]3N2O1 (stereo partly specified),inactive: 60.4%,
CC(=O)Cc1nsc(NC(=O)c2ccc(COc3ccccc3Cl)o2)n1,inactive: -3.69%,
Nc1cc2c(cc1C(=O)c1ccccc1F)OCCO2,,"inconclusive: 11.7 µM [inhibitor, single point]"
N#CC1=C(N)NC(SCc2ccc(Br)cc2)=C(C#N)C12CCCCC2,,"inconclusive: 18.5 µM [inhibitor, single point]"
COC(=O)Nc1ccc2c(c1)N(C(=O)CCN1CCN3CCCC3C1)c1ccccc1S2 (stereo unspecified),,"inconclusive: 18.5 µM [inhibitor, single point]"
Cc1cc(-c2ccccc2)n(-c2ccc(C(=O)NC(C)C)cc2)n1,,"inconclusive: 2.94 µM [inhibitor, full curve, poor fit]"
CCCCN(C)CCNC(=O)C1CCCN(S(=O)(=O)c2cccc3nsnc23)C1 (stereo unspecified),,"inconclusive: 18.5 µM [inhibitor, single point]"
C#CCn1c(S(=O)(=O)Cc2ccccc2Cl)nc(-c2ccccc2)c1-c1ccccc1,,"inconclusive: 11.7 µM [inhibitor, partial curve, poor fit]"
CCCCNC(=S)N/N=C/c1ccc(C#N)cc1,,active: 9.28 µM
CC(c1nnc(SCC(=O)Nc2cc([N+](=O)[O-])ccc2F)n1Cc1ccccc1)N(C)C (stereo unspecified),,active: 5.22 µM
O=C(c1ccc([N+](=O)[O-])cc1)N1CCN=C1SCc1ccccc1,,"inconclusive: 5.22 µM [inhibitor, single point]"
Cc1ccccc1N1CC(C(=O)O)CC1=O (stereo unspecified),,"inconclusive: 2.33 µM [inhibitor, full curve]"
Cc1ccc(/C=N/N2C(=S)SC(C)(C)C2N(O)C(=O)Nc2ccc([N+](=O)[O-])cc2)cc1 (stereo unspecified),,"inconclusive: 4.65 µM [inhibitor, partial curve, poor fit]"
CC(=O)N1CCCc2cc(S(=O)(=O)CCC(=O)N3CCN(c4cccc(C)c4)C(C)C3)ccc21 (stereo unspecified),,"inconclusive: 0.0262 µM [inhibitor, full curve, poor fit]"

# Fetched one by one from the entries so far, 2 records:
SMILES,"activity change, negative = inhibition",Potency
O=[N+]([O-])C1C(c2ccccc2)=NOC1c1ccccc1O (stereo unspecified),,"inconclusive: 4.15 µM [inhibitor, single point]"
COC(=O)Nc1ccc2c(c1)N(C(=O)CCN1CCN3CCCC3C1)c1ccccc1S2 (stereo unspecified),,"inconclusive: 18.5 µM [inhibitor, single point]"

# (list continues)

SMILES,"activity change, negative = inhibition",Potency
CCCCN=C1CC(C)(C)CC(=O)/C1=C(/O)CCC,,"inconclusive: 18.5 µM [inhibitor, partial curve, poor fit]"
O=C(CCCN1C(=O)/C(=C/c2cccc(Br)c2)SC1=S)Nc1cccnc1,,"inconclusive: 18.5 µM [inhibitor, single point]"
O=C(Cn1nnc(-c2ccccc2)n1)N1CCCCC1,,"inconclusive: 13.1 µM [inhibitor, partial curve, poor fit]"
NC(=O)C1CCCN1S(=O)(=O)c1ccc2ccccc2c1 (stereo unspecified),,"inconclusive: 7.38 µM [inhibitor, partial curve]"
Cc1ccccc1S(=O)Cc1ccc(C(=O)NC2CCN(Cc3ccccc3)CC2)o1 (stereo unspecified),,"inconclusive: 4.65 µM [inhibitor, partial curve, poor fit]"
CC1(C)Cc2c(cnn2-c2ccc(F)cc2)C(NC(=O)CN2CCCCC2=O)C1 (stereo unspecified),,"inconclusive: 18.5 µM [inhibitor, single point]"
COc1cc(/C=N\Nc2nc3ccccc3[nH]2)cc(OC)c1OC,,"inconclusive: 18.5 µM [inhibitor, single point]"
Cc1[nH]c2ccccc2c1C(=O)C(=O)N1CCOCC1,,"inconclusive: 13.1 µM [inhibitor, single point]"
O=C(NCc1ccc(Cl)cc1)c1cnccn1,,"inconclusive: 1.65 µM [inhibitor, full curve, poor fit]"
COc1ccc(S(=O)(=O)N2CCN(C(=O)c3ccc(C)o3)CC2)cc1,,"inconclusive: 11.7 µM [inhibitor, partial curve, poor fit]"
C=CCn1c(COc2ccc(OC)cc2)nnc1SC(C)C(=O)NC1CC1 (stereo unspecified),,"inconclusive: 18.5 µM [inhibitor, single point]"
Cc1cccc(C(=O)Oc2ccccc2/C=N/NC(=O)c2ccc(NC(=O)C(C)(C)C)cc2)c1,,"inconclusive: 2.62 µM [inhibitor, full curve, poor fit]"
CC1(C)Cc2c(sc(NC(=O)C(=O)NCCCN3CCOCC3)c2C#N)CO1,inactive: -24%,
COc1ccc(NC(=O)CNC(=O)c2ccc([N+](=O)[O-])cc2)cc1,,"inconclusive: 4.65 µM [inhibitor, partial curve, poor fit]"
CCn1cc(CN2CCCC(C(=O)Nc3cccc(-n4cccn4)c3)C2)c(C)n1 (stereo unspecified),,active: 10.4 µM
CC1CCCN(C(=O)c2ccccc2OC2CCN(S(C)(=O)=O)CC2)C1 (stereo unspecified),,"inconclusive: 18.5 µM [inhibitor, single point]"
Cc1cc(NC(=O)CSc2nnc(-c3ccccc3C)n2C)no1,inactive: -23.1%,
CC(C(=O)N1CCOCC1)N1C(=O)c2cccc3cccc(c23)C1=O (stereo unspecified),inactive: -2.37%,
CC(C)c1ccc(OCC(=O)N(Cc2ccco2)C2CCS(=O)(=O)C2)cc1 (stereo unspecified),,"inconclusive: 20.8 µM [inhibitor, single point]"
CCCn1c(N)c(C(=O)CN(C)CC(=O)Nc2c(Cl)cccc2Cl)c(=O)[nH]c1=O,,"inconclusive: 18.5 µM [inhibitor, single point]"
CC(C)C(=O)c1cn(Cc2ccccc2C#N)c2ccccc12,inactive: 3.46%,
Cc1cccc(NC(=O)c2ccc3nc(N4CCOCC4)sc3c2)c1C,,"inconclusive: 18.5 µM [inhibitor, single point]"
